The test concerns the target VACV E9 with an uncleaved His-tag (isolated polymerase, construct of ref. 21) (vaccinia virus (VACV)) (UniProt P20509). As to the kind of experiment: BLI; both purified.

These are yes or no findings as the source states them, for the method shown.

For “wild-type VACV D4 (isolated) (from UniProt P20536 1-218) (enzyme)”, the binding result is “no binding”.
